The target of test [1] is SetA(1-273) (Legionella pneumophila) (UniProt Q5ZU30). The experiment in a line: SEC; […]; 20 mM Tris-HCl (pH 7.5) plus 100 mM NaCl or 300 mM NaCl; […]; both purified. (Size exclusion chromatography separates by hydrodynamic size, large species first.)
The target in test [2] is (His)10-MBP-DotL(656-783)–IcmSW–LvgA (Legionella pneumophila) (UniProt Q5ZYC6). The test can be described thus: native gel or EMSA; both purified. (In general: A gel shift assay detects complexes by their altered migration in electrophoresis.)

Chains of the proteins cited; added tags and fusions are not shown. Lines headed by an entry give the natural chain unless they say otherwise; changes in a name come on top. Residues count along the entry.
UniProt Q5ZU30, residues 1-273: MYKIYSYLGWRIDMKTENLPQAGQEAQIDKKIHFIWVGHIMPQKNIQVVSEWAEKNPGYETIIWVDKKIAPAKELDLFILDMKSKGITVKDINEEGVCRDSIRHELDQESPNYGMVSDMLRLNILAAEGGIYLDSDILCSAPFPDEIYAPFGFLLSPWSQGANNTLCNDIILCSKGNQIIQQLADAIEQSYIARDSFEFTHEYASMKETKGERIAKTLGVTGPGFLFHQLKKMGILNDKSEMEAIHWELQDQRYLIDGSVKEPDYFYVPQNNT
UniProt Q5ZYC6: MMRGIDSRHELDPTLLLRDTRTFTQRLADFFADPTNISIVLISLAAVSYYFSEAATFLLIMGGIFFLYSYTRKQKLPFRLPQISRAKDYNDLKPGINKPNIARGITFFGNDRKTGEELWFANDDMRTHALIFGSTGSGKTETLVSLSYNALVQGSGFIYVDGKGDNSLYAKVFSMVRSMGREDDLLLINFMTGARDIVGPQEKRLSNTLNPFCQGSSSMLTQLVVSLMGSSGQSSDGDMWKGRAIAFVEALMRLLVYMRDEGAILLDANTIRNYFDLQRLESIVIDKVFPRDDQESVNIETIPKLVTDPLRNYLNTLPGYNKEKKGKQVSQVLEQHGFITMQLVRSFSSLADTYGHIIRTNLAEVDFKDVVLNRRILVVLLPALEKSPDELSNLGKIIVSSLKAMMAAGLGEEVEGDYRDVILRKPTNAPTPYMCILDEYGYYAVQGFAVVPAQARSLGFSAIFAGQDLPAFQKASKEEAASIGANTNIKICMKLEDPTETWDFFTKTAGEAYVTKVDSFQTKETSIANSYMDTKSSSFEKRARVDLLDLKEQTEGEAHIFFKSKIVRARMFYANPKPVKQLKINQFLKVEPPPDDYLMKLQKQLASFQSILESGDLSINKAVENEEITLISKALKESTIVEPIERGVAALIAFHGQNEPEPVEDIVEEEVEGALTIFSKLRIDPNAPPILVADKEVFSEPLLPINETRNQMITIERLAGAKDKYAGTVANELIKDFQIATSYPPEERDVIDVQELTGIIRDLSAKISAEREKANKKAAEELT

No constants are given. Whether binding was seen depends on the method and setting.

Turning to “SetA(1-273) (from UniProt Q5ZU30 1-273) (domain or fragment)”, the binding result in test [1] and in test [2] was “no binding” in each case.

The values are drawn from publication PMC7251119.
